# Screening data, single-dose tests

From ChEMBL document CHEMBL3988442, “University of Dundee, Small-Polar-MMV Screening Library” (2021).

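Whole-parasite assay of Trypanosoma brucei over 72 hours; the read-out is not stated. Concentration: 30 µM. The record gives no direction; compounds that gave an IC50 in retests scored well above the rest, so higher reads as stronger inhibition. Values scatter widely below zero; nearly all retest evidence comes from the higher of the two concentrations used. About 64,000 compounds were tested under these conditions; 1.5% (about 940) showed 50% or more at least once.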

Values are the deposited “Percent Effect”, in %.
How 0% and 100% were set is not recorded. Most values in the screen are low, and negative values occur.
The compounds are a random part of those screened.

SMILES,effect
Cc1nc(CC(=O)NS(=O)(=O)c2cccc3cnccc23)cs1,-16.25
CCc1nnc2n1CCN(C(=O)c1ccc3[nH]cnc3c1)C2,-9.139
O=c1[nH]cnc2[nH]c(N3CCOCC3)nc12,-23.15
COCCC(C)NC(=O)Nc1ccc(N2CCOC2=O)c(OC)c1 (centres unmarked),-13.23
CNc1snc(C)c1C(=O)N1CCCC(n2cccn2)C1 (centres unmarked),-3.846
Cc1ccc(F)c(S(=O)(=O)NCc2cccc(CS(C)(=O)=O)c2)c1,-66.2
CN(C)C(CNC(=O)c1ncoc1-c1ccccc1)c1ccsc1 (centres unmarked),28.05
CN1CCN(S(=O)(=O)c2cccc(C#N)c2)c2ccc(F)cc21,-34.39
c1cnn(CC2CN(Cc3csc(C4CCCCC4)n3)CCO2)c1 (centres unmarked),-15.62
c1cc2c(c(-c3cc(N4CCOCC4)ncn3)c1)CCNC2,11.22
CN(C)c1nc2c(c(N3CCC(O)CC3)n1)CN(CC1CCNC1)CC2 (centres unmarked),-5.236
O=C1NCCCCC1NC(=O)C1(c2ccccc2)CCOCC1 (centres unmarked),-42.18
O=C(O)C(F)(F)F.O=C(O)C(F)(F)F.O=C(c1ccsc1)N1CCC2(CC1)COCCN(Cc1ccncc1)C2,-20.95
Cc1cncc(C2CCN(Cc3ccc(S(C)(=O)=O)cc3)CC2)n1,-18.27
Cn1ccc(C(=O)N2CCCC2c2[nH]ncc2C(N)=O)n1 (centres unmarked),7.884
O=C(O)CSc1nnc(-c2ccn[nH]2)n1-c1ccccc1C(F)(F)F,-4.287
COc1ccc(C(C)CCNC2CCN(c3ccccn3)CC2)cc1 (centres unmarked),26.51
COCc1nn(C(C)C)c2c1CCN(Cc1ccoc1)C2.O=C(O)C(F)(F)F,-11.96
CN(C)c1ncnc2c1CCN(S(=O)(=O)c1ccccc1C(F)(F)F)C2,-65.05
O=C(O)c1ccnc(-c2ccnc(NCCc3ccc(F)cc3)n2)c1,7.729
O=C(CCc1ccccc1)N1CCC(N2CCNC2=O)CC1,-10.31
CCCC1(CO)CCCN(Cc2ncccn2)C1 (centres unmarked),-22.09
CCCc1cc(=O)[nH]c2nnc(SCC(N)=O)n12,-21.52
O=C(O)c1cccc(CC2CCN(c3ncc(F)cn3)CC2)c1,-161.5
CCC(=O)N1CCC(c2cncc(Oc3cccnc3)n2)CC1,8.92
O=C(NCc1nnc2n1CCC2)NCC1(c2cccc(F)c2)CC1,-2.319
Cl.N#CC1(C(=O)NCC2CCC3(CCNCC3)O2)CC1 (centres unmarked),-10.58
Cc1ccc(CN2CC(C(=O)Nc3ccccc3)C3(CCOCC3)C2)s1.O=C(O)C(F)(F)F (centres unmarked),31.19
c1nc(N2CCCCC2Cn2cncn2)c2ccsc2n1 (centres unmarked),17.81
CC(=O)N1CCCC(Cc2cnc(C(=O)N3CCC(C)CC3)cn2)C1 (centres unmarked),1.093
CCn1nc(C)c2ccn(CC(=O)NC(C)C)c(=O)c21,-24.97
Cc1n[nH]c(NC(=O)c2ccc(COCC(F)(F)F)cc2)c1C,20.64
[H][C@@]12CCCO[C@]1([H])[C@H](NC(=O)C1CC1)CN2Cc1cccc(C#N)c1,-23.68
CC(C)N1CCOCC2(CCCN(C(=O)c3cncn3C)C2)C1.O=C(O)C(F)(F)F (centres unmarked),-41.39
Cc1nc(COC[C@@H]2CCC[C@@]23CNCCO3)cs1.Cl.Cl,-43.88
O=C(NCCN1CCOCC1)c1cnc(Cc2ccc(F)cc2)s1,25.14
CNC(=O)C(C)NC(=O)c1ccc(Oc2cccnc2)cc1 (centres unmarked),-12.79
[H][C@@]12CN(Cc3cccnc3OC)C[C@H](C(=O)N3CCCO3)[C@]1([H])CCO2,-2.468
CCc1[nH]nc(NC(=O)c2cc[nH]n2)c1C,5.888
Cc1ccc(OCC(=O)N2CCCC(n3nc(C)nc3C)C2)cc1 (centres unmarked),1.411
COCCN1CCOCC2(CCN(c3cnccn3)CC2)C1.O=C(O)C(F)(F)F,-36.27
CC(O)(CCc1ccccc1)CNC(=O)c1ccsc1 (centres unmarked),13.12
CSCCC(=O)N1CCCCC1CCn1cccn1 (centres unmarked),-10.27
O=C(O)C(F)(F)F.O=C(O)C(F)(F)F.[H][C@@]12CCCO[C@]1([H])[C@@H](OCCN(C)C)CN2CC1CC1,15.45
[H][C@@]12CCN(C(=O)c3nnc4n3CCCC4)C[C@@]([H])(CC1)N2C,-21.87
N#Cc1ccnc(N2CCN(CC(O)c3ccccc3Cl)CC2)c1 (centres unmarked),-12.92
Cc1nc(NC(=O)N[C@H](CO)c2ccccc2)sc1C,-10.06
CN1CCOCC12CCN(c1nncs1)CC2.O=C(O)C(F)(F)F.O=C(O)C(F)(F)F,-4.264
O=C(c1coc(CN2CCN(c3ccccc3F)CC2)n1)N1CC=CC1,-21.68
Cc1nc(CN2CCOCC3(CCN(c4ccccn4)C3)C2)cs1.O=C(O)C(F)(F)F.O=C(O)C(F)(F)F (centres unmarked),39.95
[H][C@@]12CCCC[C@]1(O)CCN(C(=O)c1cccc3c1ccn3C)C2,-32.85
Cc1ccc(NC2CCN(C(=O)Cc3cccs3)CC2)nn1,-22
[H][C@@]12COC[C@@H](Cc3nnc(C)o3)[C@]1([H])CN(C(=O)C1=CCCC1)C2,-54.24
CCN(Cc1ncc(C(C)(C)C)o1)Cc1ccccc1C,0.4587
O=C(NCCNc1ncccn1)NCc1cccc(OC(F)F)c1,-93.35
CC(C)CCNC(=O)CCc1ccnc2ccccc12,-5.989
CN(C)S(=O)(=O)N1CCCC(c2nccnc2-c2cccc(Cl)c2)C1 (centres unmarked),-19.59
[H][C@]12CCN(c3ncc(CC)cn3)C[C@@]1([H])OCCN(C(C)=O)C2,-21.37
Cc1noc(C)c1C(=O)N1CCC2(CC(N(C)c3ccncn3)C2)C1 (centres unmarked),-7.316
O=C1CC(NCc2cccc(O)c2)CN1CCc1cccc(Cl)c1 (centres unmarked),-50.86
O=C(O)C(F)(F)F.O=C(c1cnccn1)N1CCCC2(CCN(c3ccccn3)C2)C1 (centres unmarked),26.13
O=C1CC(c2ccc3c(c2)OCO3)c2cnn(C3CCCC3)c2N1 (centres unmarked),-12.63
[H][C@]12CC[C@]([H])(CN(c3cnccn3)C1)N(C(=O)c1snnc1C)C2,0.47
CCCc1nnc(N2C[C@@H](C)[C@@](C)(O)C2)s1,-32.37
COC(=O)CCC(=O)N1CCc2nc(C(=O)N(C)C)sc2CC1,-63.68
CCOCCN1CCN(CC(O)c2ccc(F)cc2)CC1 (centres unmarked),13.05
Nc1ncc(C(=O)N2CCN(c3nccs3)CC2)cc1Cl,-1.432
[H][C@@]12C[C@@H](OCCOC)CN1CCN(C(=O)c1cccnc1)C2,-40.61
O=C(NC1CCNCC1)C1(N2CCCCC2)Cc2ccccc2C1,-28.25
CCn1nc(C)cc1C(=O)OCCNC(=O)c1ccccc1,-20.27
NC(=O)CN1CC2(CCC1=O)CCN(Cc1ccc(F)cc1Cl)CC2,10.59
O=C(NCC1CCOC1)c1csc(-c2ccccc2)n1 (centres unmarked),7.434

The first 8 entries again:

SMILES	effect
Cc1nc(CC(=O)NS(=O)(=O)c2cccc3cnccc23)cs1	-16.25
CCc1nnc2n1CCN(C(=O)c1ccc3[nH]cnc3c1)C2	-9.139
O=c1[nH]cnc2[nH]c(N3CCOCC3)nc12	-23.15
COCCC(C)NC(=O)Nc1ccc(N2CCOC2=O)c(OC)c1 (centres unmarked)	-13.23
CNc1snc(C)c1C(=O)N1CCCC(n2cccn2)C1 (centres unmarked)	-3.846
Cc1ccc(F)c(S(=O)(=O)NCc2cccc(CS(C)(=O)=O)c2)c1	-66.2
CN(C)C(CNC(=O)c1ncoc1-c1ccccc1)c1ccsc1 (centres unmarked)	28.05
CN1CCN(S(=O)(=O)c2cccc(C#N)c2)c2ccc(F)cc21	-34.39